Assay results from paper PMC12366701.
No constants are given. Whether binding was seen depends on the method and setting.

Target: human TTLL11 (hTTLL11), full-length (human) (UniProt Q8NHH1)
Test: SEC; Superose 6 Increase 10/300 GL; 50 mM tris-HCl pH 8, 140 mM NaCl, 10 mM KCl, 1 mM EDTA, 0.5 mM TCEP, 5% glycerol; both purified

B1: human TTLL11 (hTTLL11), full-length (enzyme, UniProt Q8NHH1 1-710)
chain: MRRGSSESELAARWEAEAVAAAKAAAKAEAEATAETVAEQVRVDAGAAGEPECKAGEEQPKVLAPAPAQPSAAEEGNTQVLQRPPPTLPPSKPKPVQGLCPHGKPRDKGRSCKRSSGHGSGENGSQRPVTVDSSKARTSLDALKISIRQLKWKEFPFGRRLPCDIYWHGVSFHDNDIFSGQVNKFPGMTEMVRKITLSRAVRTMQNLFPEEYNFYPRSWILPDEFQLFVAQVQMVKDDDPSWKPTFIVKPDGGCQGDGIYLIKDPSDIRLAGTLQSRPAVVQEYICKPLLIDKLKFDIRLYVLLKSLDPLEIYIAKDGLSRFCTEPYQEPTPKNLHRIFMHLTNYSLNIHSGNFIHSDSASTGSKRTFSSILCRLSSKGVDIKKVWSDIISVVIKTVIALTPELKVFYQSDIPTGRPGPTCFQILGFDILLMKNLKPILLEVNANPSMRIEHEHELSPGVFENVPSLVDEEVKVAVIRDTLRLMDPLKKKRENQSQQLEKPFAGKEDALDGELTSAPDCNANPEAHLPSICLKQVFPKYAKQFNYLRLVDRMANLFIRFLGIKGTMKLGPTGFRTFIRSCKLSSSSLSMAAVDILYIDITRRWNSMTLDQRDSGMCLQAFVEAFFFLAQRKFKMLPLHEQVASLIDLCEYHLSLLDEKRLVCGRGVPSGGRPPHRGPPQEPSPSAQPAGDNPPPRTSCANKLSHPRHTLS
modifications: Janelia Fluor 549-HALO probe on the HALO tag (TIRF assay)
How did the binding turn out when B1 was run?
The binding was “no binding”.
